PubChem BioAssay AID1259425, University of Nebraska Medical Center – 2018

- Aim: 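Find knockdowns that reproduce the gene expression pattern seen when KSR1 is lost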 (primary screen)
- Cells: HCT116 human colon cancer cells
- Reagent: siRNA pool against human genes, 50 nM siRNA
- Measurement: 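After 50 nM siRNA pool, branched-DNA assay measures six marker transcripts per well, minus blank, normalised to the geometric mean of two housekeeping transcripts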
- Direction: BNIP3L mRNA: higher = more BNIP3L transcript after knockdown
The deposit covers about 14,000 reagents; below is a random part of them. Not all columns of the deposit are shown. Not given: the time to read-out.

target,"BNIP3L mRNA, set 1"
TTC12,0.0783
ISOC1,0.109
MTMR1,0.092
RMP64,0.21
SLC15A2,0.0944
SV2A,0.0514
AFG3L2,0.0983
NCOR1,0.108
IFT54,0.0921
GALE,0.251
ZC2HC1A,0.307
MS4A1,0.106
FAT2,0.115
RPL9,0.262
COL20A1,0.238
MGARP,0.0854
UBE2L6,0.0856
KLF11,0.0497
KPNA5,0.0697
ME2,0.125
RBM15,0.0816
TUBE1,0.0579
BEX2,0.35
CHRM5,0.0581
DENND2D,0.0576
PODXL,0.141
EPAS1,0.0685
RAB29,0.136
SAR1B,0.0968
GCC1,0.165
CMA1,0.183
CPD,0.0585
AHDC1,0.145
EIF2B5,0.0512
KLHL15,0.0937
FBXO22,0.0694
HOXD4,0.123
WASHC3,0.0615
CENPA,0.118
INTS3,0.199
HLA-DOA,0.0545
TNFAIP8,0.042
CCN2,0.15
TDO2,0.0979
HDHD5,0.106
ZNF37A,0.119
ABCC12,0.113
MFN1,0.114
RTP4,0.106
GP1BB,0.127
LYNX1,0.159
SPTLC2,0.146
HERPUD2,0.133
KBTBD2,0.0988
DHX40,0.189
UROD,0.0882
SPRY1,0.204
RAB10,0.0863
ACTA2,0.126
CHSY1,0.0661
VIP,0.154
MYO16,0.0688
BCL11A,0.0846

Reformatted: results already given
| target | BNIP3L mRNA, set 1 |
| --- | --- |
| GCC1 | 0.165 |
| CMA1 | 0.183 |
| CPD | 0.0585 |
| AHDC1 | 0.145 |
| EIF2B5 | 0.0512 |
